Laboratory results reported in the supplement of paper PMC10849652.
The list shows a part of the results.

Sequences of proteins named here, by UniProt entry; tags and fusion partners are left off. A change or cut given only in a name is not applied to a line headed by its entry.
UniProt Q9Y223: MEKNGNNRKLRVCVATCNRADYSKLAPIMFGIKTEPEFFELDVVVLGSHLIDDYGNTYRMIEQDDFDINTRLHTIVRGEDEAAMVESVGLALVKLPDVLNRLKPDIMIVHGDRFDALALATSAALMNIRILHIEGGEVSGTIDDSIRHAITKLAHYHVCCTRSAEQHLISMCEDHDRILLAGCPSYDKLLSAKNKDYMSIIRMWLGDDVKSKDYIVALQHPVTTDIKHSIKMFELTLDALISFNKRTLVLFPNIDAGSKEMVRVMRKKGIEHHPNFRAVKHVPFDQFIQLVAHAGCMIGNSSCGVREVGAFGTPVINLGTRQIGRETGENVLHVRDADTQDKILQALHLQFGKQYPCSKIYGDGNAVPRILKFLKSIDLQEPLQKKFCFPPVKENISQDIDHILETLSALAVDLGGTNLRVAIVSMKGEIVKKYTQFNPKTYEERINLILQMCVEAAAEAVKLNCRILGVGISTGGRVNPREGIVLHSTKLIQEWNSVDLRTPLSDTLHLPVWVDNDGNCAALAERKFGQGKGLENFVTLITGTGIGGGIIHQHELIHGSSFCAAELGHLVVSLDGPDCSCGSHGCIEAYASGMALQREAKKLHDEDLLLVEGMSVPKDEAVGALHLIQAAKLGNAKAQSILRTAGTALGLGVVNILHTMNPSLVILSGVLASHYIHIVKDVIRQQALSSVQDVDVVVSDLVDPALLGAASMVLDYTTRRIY
UniProt Q9UBQ7: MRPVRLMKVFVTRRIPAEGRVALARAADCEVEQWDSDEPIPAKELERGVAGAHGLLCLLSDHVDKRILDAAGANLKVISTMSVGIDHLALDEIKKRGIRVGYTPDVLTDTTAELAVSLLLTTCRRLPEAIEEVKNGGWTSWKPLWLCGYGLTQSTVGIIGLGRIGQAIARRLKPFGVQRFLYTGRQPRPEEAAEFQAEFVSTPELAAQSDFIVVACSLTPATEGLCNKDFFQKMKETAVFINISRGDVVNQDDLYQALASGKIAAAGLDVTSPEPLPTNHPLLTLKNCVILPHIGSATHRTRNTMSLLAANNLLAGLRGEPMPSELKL
UniProt Q9NQX3: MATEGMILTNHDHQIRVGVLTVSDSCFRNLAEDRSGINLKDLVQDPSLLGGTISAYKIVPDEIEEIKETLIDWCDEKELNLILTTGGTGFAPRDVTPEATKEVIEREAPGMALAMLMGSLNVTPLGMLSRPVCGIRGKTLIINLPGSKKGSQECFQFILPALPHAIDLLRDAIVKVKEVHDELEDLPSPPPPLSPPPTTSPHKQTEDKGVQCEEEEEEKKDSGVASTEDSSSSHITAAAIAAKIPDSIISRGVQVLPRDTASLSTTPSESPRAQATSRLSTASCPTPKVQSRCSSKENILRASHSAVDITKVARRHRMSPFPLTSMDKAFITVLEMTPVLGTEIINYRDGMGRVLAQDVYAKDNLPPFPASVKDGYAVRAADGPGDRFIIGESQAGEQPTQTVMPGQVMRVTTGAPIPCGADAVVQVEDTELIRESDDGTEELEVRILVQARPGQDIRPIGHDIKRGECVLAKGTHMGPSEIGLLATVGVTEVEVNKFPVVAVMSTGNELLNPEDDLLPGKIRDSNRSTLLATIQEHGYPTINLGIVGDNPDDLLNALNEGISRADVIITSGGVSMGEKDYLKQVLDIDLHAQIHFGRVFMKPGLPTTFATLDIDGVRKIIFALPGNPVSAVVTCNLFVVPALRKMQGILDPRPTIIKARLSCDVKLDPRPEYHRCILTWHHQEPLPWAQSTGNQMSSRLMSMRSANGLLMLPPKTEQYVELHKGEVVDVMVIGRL
UniProt P36959: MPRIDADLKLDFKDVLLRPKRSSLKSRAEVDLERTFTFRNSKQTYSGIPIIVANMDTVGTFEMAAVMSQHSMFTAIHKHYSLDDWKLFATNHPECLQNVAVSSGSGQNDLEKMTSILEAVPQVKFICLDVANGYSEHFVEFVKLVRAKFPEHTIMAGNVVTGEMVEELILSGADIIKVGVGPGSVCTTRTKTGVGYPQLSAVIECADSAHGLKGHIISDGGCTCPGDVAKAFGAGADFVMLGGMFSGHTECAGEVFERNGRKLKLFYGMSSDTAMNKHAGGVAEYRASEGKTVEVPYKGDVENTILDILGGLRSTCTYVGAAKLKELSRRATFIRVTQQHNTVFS
UniProt Q9NS18: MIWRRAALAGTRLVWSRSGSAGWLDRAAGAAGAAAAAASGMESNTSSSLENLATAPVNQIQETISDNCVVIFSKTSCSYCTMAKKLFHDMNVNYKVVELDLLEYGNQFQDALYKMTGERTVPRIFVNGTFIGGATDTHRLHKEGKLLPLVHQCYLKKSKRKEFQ
UniProt O95249: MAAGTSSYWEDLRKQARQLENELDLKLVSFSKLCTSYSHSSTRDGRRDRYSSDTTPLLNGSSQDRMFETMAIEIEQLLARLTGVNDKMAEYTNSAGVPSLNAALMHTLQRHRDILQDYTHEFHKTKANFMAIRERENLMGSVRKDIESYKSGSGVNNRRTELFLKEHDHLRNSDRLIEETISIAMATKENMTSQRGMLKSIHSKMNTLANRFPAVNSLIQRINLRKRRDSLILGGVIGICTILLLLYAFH
UniProt Q9BRT9, whole entry, looked up: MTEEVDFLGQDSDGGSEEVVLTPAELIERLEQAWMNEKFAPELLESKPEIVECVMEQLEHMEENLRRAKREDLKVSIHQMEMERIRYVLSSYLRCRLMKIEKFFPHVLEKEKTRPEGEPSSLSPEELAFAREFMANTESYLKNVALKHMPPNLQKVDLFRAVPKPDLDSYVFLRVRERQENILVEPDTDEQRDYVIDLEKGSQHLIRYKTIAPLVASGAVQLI
UniProt Q7Z5G4, whole entry, looked up: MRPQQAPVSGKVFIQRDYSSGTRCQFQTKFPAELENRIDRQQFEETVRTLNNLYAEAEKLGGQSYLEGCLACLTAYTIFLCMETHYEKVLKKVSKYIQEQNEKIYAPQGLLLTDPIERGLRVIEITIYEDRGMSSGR
UniProt Q13098: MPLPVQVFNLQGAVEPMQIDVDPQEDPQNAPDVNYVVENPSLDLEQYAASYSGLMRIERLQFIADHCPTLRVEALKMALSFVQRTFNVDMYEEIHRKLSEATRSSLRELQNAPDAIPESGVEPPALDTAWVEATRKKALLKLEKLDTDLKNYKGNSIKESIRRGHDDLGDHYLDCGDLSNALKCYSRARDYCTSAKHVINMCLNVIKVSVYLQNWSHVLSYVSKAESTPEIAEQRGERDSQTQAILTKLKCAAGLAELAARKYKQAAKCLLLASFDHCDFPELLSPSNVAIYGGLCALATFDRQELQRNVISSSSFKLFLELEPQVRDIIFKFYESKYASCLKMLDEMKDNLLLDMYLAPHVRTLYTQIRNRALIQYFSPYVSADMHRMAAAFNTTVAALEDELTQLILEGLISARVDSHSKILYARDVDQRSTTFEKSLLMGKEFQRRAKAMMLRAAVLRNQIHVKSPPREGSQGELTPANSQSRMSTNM
UniProt Q9Y3E0: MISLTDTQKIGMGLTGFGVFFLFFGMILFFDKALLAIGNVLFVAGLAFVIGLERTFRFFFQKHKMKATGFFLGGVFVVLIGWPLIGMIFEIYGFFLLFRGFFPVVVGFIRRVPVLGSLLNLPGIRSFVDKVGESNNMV
UniProt P43304: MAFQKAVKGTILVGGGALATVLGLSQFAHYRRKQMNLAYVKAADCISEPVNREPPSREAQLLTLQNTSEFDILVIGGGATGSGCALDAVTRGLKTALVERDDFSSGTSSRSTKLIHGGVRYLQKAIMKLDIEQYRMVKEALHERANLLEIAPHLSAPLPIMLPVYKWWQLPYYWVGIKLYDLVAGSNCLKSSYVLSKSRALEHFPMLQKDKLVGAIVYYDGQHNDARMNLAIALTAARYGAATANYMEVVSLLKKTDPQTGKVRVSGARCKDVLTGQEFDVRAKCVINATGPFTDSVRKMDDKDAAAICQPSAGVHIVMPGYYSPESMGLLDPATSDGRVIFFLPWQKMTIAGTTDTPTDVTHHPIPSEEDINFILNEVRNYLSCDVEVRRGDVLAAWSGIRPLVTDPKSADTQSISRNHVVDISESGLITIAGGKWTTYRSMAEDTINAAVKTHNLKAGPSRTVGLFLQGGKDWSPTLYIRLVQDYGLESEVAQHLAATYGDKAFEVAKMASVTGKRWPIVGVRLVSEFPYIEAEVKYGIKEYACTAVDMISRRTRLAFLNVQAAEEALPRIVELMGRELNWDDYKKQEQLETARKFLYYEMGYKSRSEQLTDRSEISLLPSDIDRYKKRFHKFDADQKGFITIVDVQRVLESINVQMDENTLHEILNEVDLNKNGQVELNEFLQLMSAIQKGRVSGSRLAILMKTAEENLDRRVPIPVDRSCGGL
UniProt O75496: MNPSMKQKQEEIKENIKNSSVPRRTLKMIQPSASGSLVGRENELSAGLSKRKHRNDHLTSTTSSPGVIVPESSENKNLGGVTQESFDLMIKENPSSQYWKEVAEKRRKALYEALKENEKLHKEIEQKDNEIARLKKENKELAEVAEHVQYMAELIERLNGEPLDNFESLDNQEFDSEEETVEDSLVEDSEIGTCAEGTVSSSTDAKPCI
UniProt Q4V328: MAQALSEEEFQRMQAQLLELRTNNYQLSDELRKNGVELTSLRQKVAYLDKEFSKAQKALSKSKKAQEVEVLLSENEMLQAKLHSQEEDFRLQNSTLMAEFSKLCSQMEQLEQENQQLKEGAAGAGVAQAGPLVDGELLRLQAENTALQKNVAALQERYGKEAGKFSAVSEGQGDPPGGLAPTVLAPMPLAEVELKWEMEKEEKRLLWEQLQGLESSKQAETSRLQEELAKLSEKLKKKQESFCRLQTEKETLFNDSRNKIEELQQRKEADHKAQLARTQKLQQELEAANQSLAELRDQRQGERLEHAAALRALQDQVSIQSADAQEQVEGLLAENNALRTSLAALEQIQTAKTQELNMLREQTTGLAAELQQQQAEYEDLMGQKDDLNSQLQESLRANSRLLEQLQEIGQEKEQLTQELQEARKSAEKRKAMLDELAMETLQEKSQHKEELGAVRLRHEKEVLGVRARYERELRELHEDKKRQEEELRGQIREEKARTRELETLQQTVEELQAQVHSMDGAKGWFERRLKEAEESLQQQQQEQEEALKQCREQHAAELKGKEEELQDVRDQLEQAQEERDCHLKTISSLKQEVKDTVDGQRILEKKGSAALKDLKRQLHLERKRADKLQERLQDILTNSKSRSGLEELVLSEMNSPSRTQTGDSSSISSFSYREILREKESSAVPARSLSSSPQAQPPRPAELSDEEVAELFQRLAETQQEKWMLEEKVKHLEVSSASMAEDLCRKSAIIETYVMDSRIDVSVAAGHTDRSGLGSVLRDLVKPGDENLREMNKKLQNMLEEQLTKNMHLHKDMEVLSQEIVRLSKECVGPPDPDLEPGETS
UniProt P50148, whole entry, looked up: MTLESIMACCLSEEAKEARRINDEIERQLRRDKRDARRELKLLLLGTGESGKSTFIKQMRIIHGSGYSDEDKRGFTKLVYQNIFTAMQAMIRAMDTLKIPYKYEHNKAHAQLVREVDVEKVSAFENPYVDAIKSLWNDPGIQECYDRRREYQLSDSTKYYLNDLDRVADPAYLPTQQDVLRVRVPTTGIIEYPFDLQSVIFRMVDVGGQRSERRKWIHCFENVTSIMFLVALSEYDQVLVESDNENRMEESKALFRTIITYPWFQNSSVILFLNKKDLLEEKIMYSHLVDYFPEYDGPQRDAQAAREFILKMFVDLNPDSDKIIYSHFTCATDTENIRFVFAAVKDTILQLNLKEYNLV
UniProt P62873, whole entry, looked up: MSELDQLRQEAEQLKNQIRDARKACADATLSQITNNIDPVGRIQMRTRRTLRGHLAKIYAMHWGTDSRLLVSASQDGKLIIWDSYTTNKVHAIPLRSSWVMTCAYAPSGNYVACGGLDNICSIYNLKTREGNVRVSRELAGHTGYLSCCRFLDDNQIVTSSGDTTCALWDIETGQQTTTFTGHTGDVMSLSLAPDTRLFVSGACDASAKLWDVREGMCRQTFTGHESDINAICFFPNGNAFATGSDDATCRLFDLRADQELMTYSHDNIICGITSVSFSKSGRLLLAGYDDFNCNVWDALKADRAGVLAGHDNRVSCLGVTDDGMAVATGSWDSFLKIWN
UniProt B7ZAQ6: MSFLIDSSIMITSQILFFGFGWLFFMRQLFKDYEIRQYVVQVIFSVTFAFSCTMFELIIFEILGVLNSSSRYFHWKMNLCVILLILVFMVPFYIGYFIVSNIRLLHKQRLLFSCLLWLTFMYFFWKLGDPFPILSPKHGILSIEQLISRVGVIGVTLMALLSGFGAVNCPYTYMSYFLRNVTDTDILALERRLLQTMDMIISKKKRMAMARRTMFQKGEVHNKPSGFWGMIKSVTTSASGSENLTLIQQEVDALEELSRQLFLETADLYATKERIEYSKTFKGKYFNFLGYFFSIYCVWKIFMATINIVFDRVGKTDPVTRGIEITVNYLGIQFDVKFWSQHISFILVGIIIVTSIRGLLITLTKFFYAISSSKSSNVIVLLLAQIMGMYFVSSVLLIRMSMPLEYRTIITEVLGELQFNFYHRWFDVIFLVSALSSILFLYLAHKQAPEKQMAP

Experiments:
Experiment in all cases: log2 fold change, soluble protein after heating vs DMSO (PISA); higher = thermal stabilisation; K562 cells, 10 uM, 30 min; active = over 0.2 and 3.5 SD of the protein, either way, in both replicates (recomputed)
[1] = compound: CC[C@@H]1C(=O)N(C)c2cnc(Nc3ccc(C(=O)NC4CCN(C)CC4)cc3OC)nc2N1C1CCCC1
Outline: (§1)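 K562 cells at 2×10^6 cells/mL were exposed to 10 μM compound for 30 min, then aliquots were heated for 3 min across 48°C-58°C, pooled, and extracted in PBS containing 0.5% NP-40 at 4°C. The supernatant after 21,000xg for 90 min was taken as soluble protein and measured by TMTpro 16plex LC-MS/MS with channel sums equalised. Thermal stability is reported relative to control samples, with values from duplicates. Fold changes are given on a log2 scale.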

volasertib = compound: CC[C@@H]1C(=O)N(C)c2cnc(Nc3ccc(C(=O)N[C@H]4CC[C@H](N5CCN(CC6CC6)CC5)CC4)cc3OC)nc2N1C(C)C [volasertib]
Outline: as §1

[2] = compound: CC[C@H](C)N1C=C(C2=C(C=C(C=C21)C3=CN=C(C=C3)N4CCNCC4)C(=O)NCC5=C(C=C(NC5=O)C)C)C
Outline: as §1

epoxomicin = compound: CC[C@H](C)[C@@H](C(=O)N[C@@H]([C@@H](C)O)C(=O)N[C@@H](CC(C)C)C(=O)[C@]1(CO1)C)NC(=O)[C@H]([C@@H](C)CC)N(C)C(=O)C [epoxomicin]
Outline: as §1

[3] = compound: CCn1c(C(=O)N(C2CC2)C2CC2)cc2c3c(ncn3C)c(Nc3cc(C)n(C)n3)nc21
Outline: as §1

[4] = compound: CCn1cc(-c2ccnc3[nH]c(-c4cccc(CN(C)C)c4)cc23)c(-c2ccc(NC(=O)N(C)C)cc2)n1
Outline: as §1

[5] = compound: CN(C)CC(=O)Nc1ccc2[nH]c(=O)c3ccccc3c2c1
Outline: as §1

rosiglitazone = compound: CN(CCOC1=CC=C(C=C1)C[C@H]2C(=O)NC(=O)S2)C3=CC=CC=N3 (racemic) [rosiglitazone]
Outline: as §1

[6] = compound: CN1C2=C(C3=C1C(=O)N(N=C3)CC4=CC(=CC=C4)N)SC(=C2)S(=O)C
Outline: as §1

[7] = compound: CN1CCC(CNc2ccc3ncc(-c4cccc(OC(F)(F)F)c4)n3n2)CC1
Outline: as §1

Measured: log2 fold change

GNE isoform 2 (UniProt Q9Y223)
inactive: [1] 0.117 | volasertib 0.184 | [2] -0.035 | epoxomicin 0.016 | [3] -0.027 | [4] -0.165 | [5] 0.015 | rosiglitazone 0.027 | [6] -0.062 | [7] 0.014

GRHPR (UniProt Q9UBQ7)
inactive: [1] 0.034 | volasertib 0.039 | [2] 0.006 | epoxomicin 0.009 | [3] 0.014 | [4] -0.088 | [5] 0.005 | rosiglitazone -0.006 | [6] -0.099 | [7] -0.013

GMPR2 isoform 2 (UniProt Q9P2T1)
inactive: [1] 0.022 | volasertib 0.082 | [2] -0.044 | epoxomicin 0.012 | [3] -0.007 | [4] -0.044 | [5] -0.051 | rosiglitazone -0.013 | [6] -0.041 | [7] -0.049

GPHN isoform 2 (UniProt Q9NQX3)
inactive: [1] -0.022 | volasertib 0.045 | [2] -0.034 | epoxomicin 0.009 | [3] 0.011 | [4] -0.019 | [5] -0.002 | rosiglitazone -0.015 | [6] -0.033 | [7] -0.029

GNB1L (UniProt Q9BYB4)
inactive: [1] -0.042 | volasertib 0.005 | [2] -0.029 | epoxomicin 0.057 | [3] -0.033 | [4] -0.014 | [5] -0.043 | rosiglitazone -0.005 | [6] -0.056 | [7] -0.005

GOLGA4 isoform 5 (UniProt Q13439)
inactive: [1] -0.055 | volasertib -0.052 | [2] 0.008 | epoxomicin 0.035 | [3] -0.104 | [4] 0.056 | [5] -0.027 | rosiglitazone 0.068 | [6] 0.102 | [7] -0.091

GPAA1 (UniProt O43292)
inactive: [1] 0.012 | volasertib -0.1 | [2] 0.024 | epoxomicin 0.016 | [3] 0.091 | [4] -0.075 | [5] 0 | rosiglitazone -0.025 | [6] -0.009 | [7] 0.079

GMPR (UniProt P36959)
inactive: [1] 0.06 | volasertib 0.019 | [2] -0.036 | epoxomicin -0.002 | [3] 0.045 | [4] -0.078 | [5] 0.03 | rosiglitazone 0.004 | [6] -0.055 | [7] 0.003

GLRX2 isoform 2 (UniProt Q9NS18)
inactive: [1] -0.015 | volasertib 0.112 | [2] 0.03 | epoxomicin 0.067 | [3] 0.099 | [4] -0.04 | [5] -0.035 | rosiglitazone 0.011 | [6] -0.037 | [7] 0.016

GNA13 (UniProt Q14344)
inactive: [1] 0.075 | volasertib 0.062 | [2] 0.002 | epoxomicin -0.001 | [3] -0.021 | [4] 0.003 | [5] 0.022 | rosiglitazone 0.028 | [6] -0.098 | [7] 0.049

GRB2 (UniProt P62993)
inactive: [1] -0.033 | volasertib 0.034 | [2] 0.025 | epoxomicin 0.03 | [3] 0.006 | [4] -0.075 | [5] -0.027 | rosiglitazone 0.05 | [6] -0.076 | [7] -0.051

GOSR1 (UniProt O95249)
inactive: [1] -0.077 | volasertib -0.025 | [2] -0.034 | epoxomicin 0.023 | [3] 0.016 | [4] -0.024 | [5] -0.004 | rosiglitazone 0.021 | [6] -0.027 | [7] -0.185

GINS4 (UniProt Q9BRT9)
inactive: [1] -0.064 | volasertib -0.069 | [2] 0.096 | epoxomicin 0.038 | [3] -0.001 | [4] -0.064 | [5] 0.018 | rosiglitazone 0.029 | [6] -0.056 | [7] -0.02

GOLGA7 (UniProt Q7Z5G4)
inactive: [1] 0.022 | volasertib 0.136 | [2] -0.055 | epoxomicin 0.047 | [3] 0.015 | [4] -0.06 | [5] -0.01 | rosiglitazone 0.022 | [6] 0.029 | [7] 0.167

GPS1 isoform 7 (UniProt Q13098)
inactive: [1] -0.012 | volasertib -0.026 | [2] -0.007 | epoxomicin 0.033 | [3] 0.006 | [4] -0.02 | [5] -0.012 | rosiglitazone 0.013 | [6] -0.041 | [7] 0.017

GM2A (UniProt P17900)
inactive: [1] 0.067 | volasertib -0.064 | [2] 0.011 | epoxomicin 0.228 | [3] 0.007 | [4] -0.03 | [5] 0.106 | rosiglitazone -0.012 | [6] 0.056 | [7] -0.02

GOLT1B (UniProt Q9Y3E0)
inactive: [1] -0.003 | volasertib 0.023 | [2] -0.012 | epoxomicin -0.048 | [3] -0.005 | [4] 0.09 | [5] 0.093 | rosiglitazone 0.009 | [6] -0.032 | [7] 0.032

GIPC1 (UniProt O14908)
inactive: [1] 0.037 | volasertib -0.192 | [2] 0.055 | epoxomicin 0.082 | [3] -0.014 | [4] -0.019 | [5] 0.069 | rosiglitazone 0.011 | [6] -0.037 | [7] -0.029

GPD2 (UniProt P43304)
inactive: [1] 0.048 | volasertib 0.03 | [2] -0.032 | epoxomicin -0.007 | [3] 0.006 | [4] 0.005 | [5] -0.018 | rosiglitazone -0.014 | [6] -0.039 | [7] 0.023

GPRIN1 (UniProt Q7Z2K8)
inactive: [1] 0.011 | volasertib 0.054 | [2] 0.002 | epoxomicin 0.015 | [3] 0.003 | [4] -0.025 | [5] -0.034 | rosiglitazone -0.009 | [6] -0.064 | [7] 0.108

GPD1L (UniProt Q8N335)
inactive: [1] -0.013 | volasertib -0.059 | [2] 0.024 | epoxomicin -0.013 | [3] -0.006 | [4] -0.07 | [5] 0.006 | rosiglitazone -0.025 | [6] -0.081 | [7] -0.026

GMNN (UniProt O75496)
inactive: [1] 0.055 | volasertib 0.094 | [2] 0.008 | epoxomicin 0.044 | [3] 0.007 | [4] 0.019 | [5] -0.038 | rosiglitazone -0.006 | [6] -0.051 | [7] -0.012

GPN3 isoform 2 (UniProt Q9UHW5)
inactive: [1] 0.08 | volasertib 0.131 | [2] -0.041 | epoxomicin -0.028 | [3] -0.002 | [4] -0.016 | [5] 0.011 | rosiglitazone 0.026 | [6] -0.081 | [7] 0.064

GRIPAP1 (UniProt Q4V328)
inactive: [1] -0.031 | volasertib -0.236 | [2] 0.093 | epoxomicin -0.039 | [3] -0.016 | [4] 0.017 | [5] -0.022 | rosiglitazone 0.018 | [6] 0.044 | [7] 0.044

GNAQ (UniProt P50148)
inactive: [1] 0.016 | volasertib 0.086 | [2] -0.017 | epoxomicin -0.011 | [3] 0.031 | [4] -0.047 | [5] 0.051 | rosiglitazone 0.028 | [6] 0.053 | [7] -0.036

Reprinted from the results shown (6 entries):
GPRIN1 (UniProt Q7Z2K8)
inactive: [1] 0.011 | volasertib 0.054 | [2] 0.002 | epoxomicin 0.015 | [3] 0.003 | [4] -0.025 | [5] -0.034 | rosiglitazone -0.009 | [6] -0.064 | [7] 0.108

GPD1L (UniProt Q8N335)
inactive: [1] -0.013 | volasertib -0.059 | [2] 0.024 | epoxomicin -0.013 | [3] -0.006 | [4] -0.07 | [5] 0.006 | rosiglitazone -0.025 | [6] -0.081 | [7] -0.026

GMNN (UniProt O75496)
inactive: [1] 0.055 | volasertib 0.094 | [2] 0.008 | epoxomicin 0.044 | [3] 0.007 | [4] 0.019 | [5] -0.038 | rosiglitazone -0.006 | [6] -0.051 | [7] -0.012

GPN3 isoform 2 (UniProt Q9UHW5)
inactive: [1] 0.08 | volasertib 0.131 | [2] -0.041 | epoxomicin -0.028 | [3] -0.002 | [4] -0.016 | [5] 0.011 | rosiglitazone 0.026 | [6] -0.081 | [7] 0.064

GRIPAP1 (UniProt Q4V328)
inactive: [1] -0.031 | volasertib -0.236 | [2] 0.093 | epoxomicin -0.039 | [3] -0.016 | [4] 0.017 | [5] -0.022 | rosiglitazone 0.018 | [6] 0.044 | [7] 0.044

GNAQ (UniProt P50148)
inactive: [1] 0.016 | volasertib 0.086 | [2] -0.017 | epoxomicin -0.011 | [3] 0.031 | [4] -0.047 | [5] 0.051 | rosiglitazone 0.028 | [6] 0.053 | [7] -0.036

(further entries)

GLMN (UniProt Q92990)
inactive: [1] -0.054 | volasertib -0.08 | [2] 0.024 | epoxomicin 0.023 | [3] 0.004 | [4] -0.007 | [5] 0.004 | rosiglitazone 0.032 | [6] -0.043 | [7] -0.125

GNB1 (UniProt P62873)
inactive: [1] 0.068 | volasertib 0.073 | [2] -0.024 | epoxomicin 0.017 | [3] -0.005 | [4] -0.032 | [5] 0.014 | rosiglitazone -0.017 | [6] -0.185 | [7] 0.242

GINS3 (UniProt Q9BRX5)
inactive: [1] -0.065 | volasertib -0.139 | [2] 0.025 | epoxomicin 0.075 | [3] -0.02 | [4] -0.01 | [5] -0.003 | rosiglitazone 0.059 | [6] -0.02 | [7] -0.076

GPR89A (UniProt B7ZAQ6)
inactive: [1] -0.045 | volasertib -0.07 | [2] -0.01 | epoxomicin 0.08 | [3] -0.01 | [4] 0.048 | [5] 0.012 | rosiglitazone -0.004 | [6] -0.056 | [7] -0.027

GNPNAT1 (UniProt Q96EK6)
inactive: [1] 0.051 | volasertib 0.084 | [2] -0.042 | epoxomicin 0.029 | [3] -0.013 | [4] 0.022 | [5] 0.021 | rosiglitazone -0.008 | [6] -0.04 | [7] -0.121
